Measured values as given in US20230029635A1 (US Dept. of Health and Human Services, published 2023).
Numbering of substitutions follows the chain as printed. These are yes or no findings as the source states them, for the method shown. Some entries that bind do so weakly or less than the wild type.

By UniProt entry, the sequences of proteins in these tests, tags left out. Where a name states a change or a piece, a line headed by the entry shows the natural chain unless it says otherwise. Residues count along the entry.
UniProt P01024: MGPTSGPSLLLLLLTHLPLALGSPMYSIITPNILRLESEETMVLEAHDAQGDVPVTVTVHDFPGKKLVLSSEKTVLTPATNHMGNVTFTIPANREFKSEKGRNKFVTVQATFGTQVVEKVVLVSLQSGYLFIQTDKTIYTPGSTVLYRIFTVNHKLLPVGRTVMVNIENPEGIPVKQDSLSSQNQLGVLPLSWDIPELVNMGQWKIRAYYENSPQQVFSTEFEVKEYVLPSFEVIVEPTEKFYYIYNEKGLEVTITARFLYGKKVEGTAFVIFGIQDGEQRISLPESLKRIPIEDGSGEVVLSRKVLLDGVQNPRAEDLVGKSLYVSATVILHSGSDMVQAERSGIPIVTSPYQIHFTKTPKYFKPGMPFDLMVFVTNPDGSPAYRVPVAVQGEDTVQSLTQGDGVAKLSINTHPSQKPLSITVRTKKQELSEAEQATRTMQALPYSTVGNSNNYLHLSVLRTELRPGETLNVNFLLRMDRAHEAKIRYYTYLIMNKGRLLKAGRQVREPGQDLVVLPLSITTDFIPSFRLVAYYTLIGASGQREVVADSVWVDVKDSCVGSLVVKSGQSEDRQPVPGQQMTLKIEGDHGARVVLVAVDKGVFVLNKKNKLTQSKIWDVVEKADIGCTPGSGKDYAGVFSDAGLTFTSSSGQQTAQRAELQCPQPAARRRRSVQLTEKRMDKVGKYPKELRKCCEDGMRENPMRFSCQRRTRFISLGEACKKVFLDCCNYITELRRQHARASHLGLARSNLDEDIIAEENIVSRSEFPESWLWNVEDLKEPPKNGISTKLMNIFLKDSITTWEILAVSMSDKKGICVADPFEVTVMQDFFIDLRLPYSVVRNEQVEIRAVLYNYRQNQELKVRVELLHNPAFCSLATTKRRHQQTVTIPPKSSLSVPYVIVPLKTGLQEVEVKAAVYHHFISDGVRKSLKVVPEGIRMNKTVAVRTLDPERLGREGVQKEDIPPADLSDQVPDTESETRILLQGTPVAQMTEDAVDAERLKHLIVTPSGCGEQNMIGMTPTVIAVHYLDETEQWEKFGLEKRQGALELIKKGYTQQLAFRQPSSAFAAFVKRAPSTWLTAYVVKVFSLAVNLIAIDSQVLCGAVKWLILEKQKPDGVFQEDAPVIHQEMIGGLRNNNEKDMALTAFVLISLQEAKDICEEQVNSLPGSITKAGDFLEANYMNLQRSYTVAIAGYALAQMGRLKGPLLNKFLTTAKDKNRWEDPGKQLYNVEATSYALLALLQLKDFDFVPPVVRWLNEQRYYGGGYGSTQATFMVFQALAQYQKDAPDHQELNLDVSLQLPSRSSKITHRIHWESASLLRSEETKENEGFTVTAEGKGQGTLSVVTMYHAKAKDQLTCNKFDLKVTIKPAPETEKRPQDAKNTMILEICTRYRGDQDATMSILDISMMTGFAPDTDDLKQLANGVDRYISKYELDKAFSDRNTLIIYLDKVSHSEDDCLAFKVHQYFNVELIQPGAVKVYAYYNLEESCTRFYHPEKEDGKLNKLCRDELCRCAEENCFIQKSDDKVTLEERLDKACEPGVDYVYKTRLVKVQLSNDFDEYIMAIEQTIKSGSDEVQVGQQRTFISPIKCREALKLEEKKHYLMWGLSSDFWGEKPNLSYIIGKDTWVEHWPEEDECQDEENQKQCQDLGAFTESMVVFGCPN
Human serum C3: residues 23-1663 of P01024
Human complement protein C3d (hC3d): residues 1002-1303 of P01024

B1: 3N02 (Fab, V domains shown)
VH: QKQLVESGGRLVTPGGSLTLTCTISGIDLNTYGMTWVRQAPGKGLEYIGIIVSSGNTYYANWAQGRFTISKTSTTVDLKMTSLTASDTATYFCARGLGRAYSSGYGMDGWGPGTLVTVSS
VL: DPVLTQTPSSTSAAVGGTVTIKCQASQNIYTSLAWYQQKPGQPPKLLIYGASNLASGVPSRFKGSRSGTEYTLTISGVEREDAATYYCLGSYTQIDTTFGGGTKLEIK
notes: Chimeric rabbit/human Fab (rabbit variable domains, human kappa constant domain) with 6xHis tag in SPR, zymosan ELISA and flow cytometry; also called 3N02 r/h-IgG1k
B2: 3NS1 (Fab, V domains shown)
VH: QSVEESGGRLVTPGTPLTLTCTVSGFSLSNYIITWVRQAPGKGLEWIGMISTDGDTYYANWAKGRFTISKTSTTANLKITSPTTEDTATYFCARGLTNFFIWGPGTLVTVSS
VL: QPVLTQSPSVSAALGASAKLTCTLSSAHKTYSIGWYQQHQGEAPRFLMQLRRDGSYTKGTGVPDHFSGSSSGADRYLIIPNVQADDEADYYCGVDYDGGYVFGGGTQLTVTG
notes: Chimeric rabbit/human Fab, lambda, with 6xHis tag; also called 3NS1 r/h-IgG1λ
B3: 5S8 (Fab, V domains shown)
VH: QSVEESGGRLVTPGTPLTLTCTVSGFSLSSYAMTWVRQAPGKGLEWIGVIGTSGMRYYANWAKGRFTISKTSTTVDLKITSPTTEDTATYFCARANFYVGNDESTDAFDPWGPGTLVTVSS
VL: ALVMTQTPPSLSASVGETVRIRCLASEDIYNTISWYQQKPGKPPTLLIYGASNLKSGVPPRFSGSGSGTDYTLTIGGVQSEDAATYYCLGGYSYSSTGLTFGAGTKVEIK
notes: Chimeric rabbit/human Fab, kappa, with 6xHis tag in SPR, zymosan and JeKo-1 assays; also called Fab 5S8; 5S8 r/h-IgG1k
B4: d301 (Fab, V domains shown)
VH: QSLEESGGRLVTPGTPLTLTCTVSGFSLSTYTLGWVRQAPGKGLEYIGWIDSSGSAYYASWAKGRFTISKASSTTVDLKMAGLTTEDTATYFCASGNTGGDPLYYGMDPWGPGTLVTVSS
VL: DPVLTQTPSSTSAAVGGTVTIKCQASQNIGRWLAWYQQKPGQPPKLLIYRASDLASGVPSRFKGSGSGTQFTLTISGVQREDAATYYCLGSYSSSDSAFGGGTEVVVK
notes: Chimeric rabbit/human Fab, kappa, with 6xHis tag; also called Fab d301; d301 r/h-IgG1k
B5: 3N07 (Fab, V domains shown)
VH: B4 VH with T30R, L33M, G34A, A56T, A71T, A81T, G82S, T98D
VL: DGVMTQTPSSTSAAVGGTVTIKCQASQSIRSWLSWYQQKPGQPPKLLIYEASKLASGVPSRFKGSRSGTEYTLAISGVQREDAATYYCLGSIASDDTAFGAGTNVEIK
notes: Chimeric rabbit/human Fab, kappa, with 6xHis tag; also called Fab 3N07; 3N07 r/h-IgG1k
B6: 3NS2 (Fab, V domains shown)
VH: QSVEESGGRLVTPGTPLTLTCTVSGIDLSSYSMGWVRQAPGKGLEWIGIIYNTGRIDYANWAKGRFTISKTSTTVDLKITSPTIGDTATYFCGRGYPGDIWGPGTLVTVSS
VL: DVVMTQTPSSVSAAVGGTVTIKCQASESIYSDLAWYQQKPGQRPKLLIYFASTLASGVPSRFKGSGSGTEYTLTISGVQREDAATYYCLGDYGNSWAFGAGTKVEIK
notes: Chimeric rabbit/human Fab, lambda, with 6xHis tag
B7: 3NS3 (Fab, V domains shown)
VH: QSLEESGGGLVTPGTPLTLTCTVSGIDLSAYAMTWVRQAPGKGLEWIGMISTDGATYYASWAKGRFTISKTSTTADLTITSPTTEDTATYFCARGLTNFFIWGPGTLVTISS
VL: QPVLTQSPSASATLGSSAKLTCTLSSAHSTYTIAWYQQKQGESPRCLMYLKSDGSYTRGTGVPDRFSGSSSGADRYLIIPNVQADDEADYYCGADYSGGYLFGGGTQLTVTG
notes: as for B6
B8: 4S12 (Fab, V domains shown)
VH: QEQLVESGGRLVTPGTPLTLTCTVSGFSLSSYHMSWVRQAPGKGLEWIGIIYFTGDASYASWAKGRFTISKTSPTTVDLKITSPTTEDTATYFCARDTDWNSSRTIPFDPWGPGTLVTVSS
VL: SFVLTQPASVQVNLGQTVSLTCTADTLSRTYASWYQQKPGQAPVLLIYRDTSRPSGVPDRFSGSSSGNTATLTISGAQAGDEADYYCATSDGSGSSYQYVFGGGTQLTVTG
notes: as for B6

molecular target: Human complement protein C3d (hC3d) (human) (UniProt P01024); assay: ELISA on immobilized human C3d, antibody at 10 µg/ml, in PBS or with normal human serum 1/2 to 1/50 (y axis without label)

Row | Binder | binding
1 | B1 | binds
2 | B2 | binds
3 | B3 | binds
4 | B4 | binds

molecular target: Human complement protein C3d (hC3d) (human) (UniProt P01024); assay: binding of 10 µg/ml antibody to immobilized C3d with NHS at 1/2 to 1/50 dilution or PBS (FIG. 1)

Row | Binder | binding
5 | B2 | binds
6 | B3 | binds

molecular target: Human complement protein C3d (hC3d) (human) (UniProt P01024); assay: binding to immobilized human C3d with or without normal human serum; legend of FIG. 1

Row | Binder | binding
7 | B2 | binds
8 | B3 | binds

molecular target: Human serum C3 (human) (UniProt P01024); assay: competition zymosan ELISA: human serum (C3) at 1/10 to 1/6250 competes with zymosan-deposited human C3 fragments for the His-tagged Fab at 1 µg/mL

Row | Binder | binding
9 | B1 | binds
10 | B4 | binds
11 | B5 | binds
12 | B6 | binds
13 | B7 | binds
14 | B8 | binds

molecular target: Human serum C3 (human) (UniProt P01024); assay: competition ELISA: normal human serum (source of full-length C3) at 1/2 to 1/50 competes with immobilized human C3d for the antibody at 10 µg/ml

Row | Binder | binding
15 | B1 | binds
16 | B4 | binds

molecular target: Human serum C3 (human) (UniProt P01024); assay: competition zymosan ELISA: human serum (C3) at 1/2 to 1/1250 premixed with the His-tagged Fab at 15 µg/mL competes with zymosan-deposited human C3 fragments

Row | Binder | binding
17 | B1 | binds
18 | B4 | binds
19 | B5 | binds
20 | B6 | binds
21 | B7 | binds
22 | B8 | binds

molecular target: Human serum C3 (human) (UniProt P01024); assay: zymosan ELISA, competition by C3 in human serum for Fab binding to deposited human C3 fragments (FIG. 11)

Row | Binder | binding
23 | B1 | binds
24 | B4 | binds
25 | B5 | binds
26 | B6 | binds
27 | B7 | binds
28 | B8 | binds
